{"sequences": {"note": "Amino acid sequences for entries named in this document (tags omitted).", "UniProt Q0JBA9, entry or part of it": "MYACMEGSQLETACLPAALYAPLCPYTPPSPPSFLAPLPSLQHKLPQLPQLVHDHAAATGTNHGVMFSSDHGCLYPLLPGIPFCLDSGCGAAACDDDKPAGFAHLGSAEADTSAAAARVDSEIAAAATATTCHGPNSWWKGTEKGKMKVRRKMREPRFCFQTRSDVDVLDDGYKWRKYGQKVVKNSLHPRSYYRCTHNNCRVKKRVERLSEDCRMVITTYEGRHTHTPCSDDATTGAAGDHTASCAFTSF"}, "source": "paper PMC7819943", "about": "“Rice protein-binding microarrays: a tool to detect cis-acting elements near promoter regions in rice”", "note": "The list shows a part of the results.", "data": [{"molecular_target": "OsWRKY34 (Oryza sativa, UniProt Q0JBA9 1-250)", "test": "protein-binding microarray (RPBM); PBS, 2% BSA, 51.3 ng/ul salmon testes DNA, 50 uM zinc acetate, 200 nM TF, 25 C, 1 h; high values mean tight binding", "conditions": "protein: recombinant; tags: N-terminal polyhistidine and DsRed monomer fusion (pET32a); label: CyDye5-dUTP incorporated in the synthesized complementary strand; 3' TTTTT single-stranded linker to array surface; dsDNA, one strand shown", "how_it_was_run": "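Binding signal here means per-feature fluorescence intensity in arbitrary units. The values were read on an Axon 4000B scanner after a custom Agilent array, double-stranded by primer extension with Cy5-dUTP, was incubated with 200 nM protein at 25 °C for 1 h in PBS with 2% BSA, salmon testes DNA and 50 µM zinc acetate, then washed. The proteins were transcription factors with an N-terminal polyhistidine tag and DsRed, expressed in E. coli BL21-CodonPlus and purified on Ni–NTA.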", "values": [{"sequence": "CTCCACCTTCAACCACTTCTTCTTCTTCTTCTTCTTCTTCCGGAGTCACCTAGTGCAG", "binding signal": "8520 fluorescence intensity (a.u.)"}, {"sequence": "GCCCAATCCACCGTAGCCGCGGCCCATTTCGTTGTCCGTCCGGAGTCACCTAGTGCAG", "binding signal": "9970 fluorescence intensity (a.u.)"}, {"sequence": "ACCGCAGTGCTCGCTCATATTTTTAGTCGCGTTGTTGCTGCGGAGTCACCTAGTGCAG", "binding signal": "8340 fluorescence intensity (a.u.)"}, {"sequence": "TCCTAGCCATCTATTCTTCTCATCTATATCTTCACATCTCCGGAGTCACCTAGTGCAG", "binding signal": "9760 fluorescence intensity (a.u.)"}, {"sequence": "GGATATTAGGATTTAACCGATTAATCATGCATTTTATATACGGAGTCACCTAGTGCAG", "binding signal": "8560 fluorescence intensity (a.u.)"}, {"sequence": "AAGAAACAACACACGTTAGCATTTCACTGCTATTAAGTTCCGGAGTCACCTAGTGCAG", "binding signal": "8460 fluorescence intensity (a.u.)"}, {"sequence": "AGCGTAATGCCTATAACTTACTCGTCGCATGAGTTCTATTCGGAGTCACCTAGTGCAG", "binding signal": "9020 fluorescence intensity (a.u.)"}, {"sequence": "CTTTTGCACTCGAGATATTTCATCAGTTCTTGCCATTTCACGGAGTCACCTAGTGCAG", "binding signal": "16500 fluorescence intensity (a.u.)"}, {"sequence": "GGCCGCCGCATTGCCCGCCTACCTACCCTGTGGTTTCCAGCGGAGTCACCTAGTGCAG", "binding signal": "8120 fluorescence intensity (a.u.)"}, {"sequence": "AAAGTACACCCAAGGTCCCTCAATTTGTCATCGAGATACACGGAGTCACCTAGTGCAG", "binding signal": "8050 fluorescence intensity (a.u.)"}, {"sequence": "TATGTTTTTCTTCCAACAGTCATGATATAGTTTTGCTTGTCGGAGTCACCTAGTGCAG", "binding signal": "8560 fluorescence intensity (a.u.)"}, {"sequence": "CCGTTGAGTTACTAATATGGTGCTGTGTCTCGGCTCTTGACGGAGTCACCTAGTGCAG", "binding signal": "11100 fluorescence intensity (a.u.)"}, {"sequence": "CTTGTCCACTCCAGTCCACACAGCCACTCGATCGTTATCCCGGAGTCACCTAGTGCAG", "binding signal": "11900 fluorescence intensity (a.u.)"}, {"sequence": "TATTACTTTTTTTTGTGTGTGTTTCCTTGGCTCCTTGCTCCGGAGTCACCTAGTGCAG", "binding signal": "8050 fluorescence intensity (a.u.)"}, {"sequence": "GAACCACCTCAATCTTCATGGTCCGGTTGAACGAGATCTACGGAGTCACCTAGTGCAG", "binding signal": "8940 fluorescence intensity (a.u.)"}, {"sequence": "TCCATCGGTCTTCTCTTCCTAGCTTTCTGATGGAACGAAGCGGAGTCACCTAGTGCAG", "binding signal": "11800 fluorescence intensity (a.u.)"}, {"sequence": "GTGGTGGTGCTGCTGCATTGGGTGCGTCGTGGGTGGATTCCGGAGTCACCTAGTGCAG", "binding signal": "8440 fluorescence intensity (a.u.)"}, {"sequence": "CCTGCCTGCCTGCCTGCCTGCTGCGTTTCGATCGATATCCCGGAGTCACCTAGTGCAG", "binding signal": "9760 fluorescence intensity (a.u.)"}, {"sequence": "CCTTTCGTTCTGTATGTTAGCCATCAATCTTTAATGTTTGCGGAGTCACCTAGTGCAG", "binding signal": "9850 fluorescence intensity (a.u.)"}, {"sequence": "TATTTAACTGTACATGATCTTTGGTTAGGTAAGACAAACACGGAGTCACCTAGTGCAG", "binding signal": "8870 fluorescence intensity (a.u.)"}, {"sequence": "GAACTCCCACTCACTAGTAGCACTTACTTGTAGCTATTGACGGAGTCACCTAGTGCAG", "binding signal": "8630 fluorescence intensity (a.u.)"}, {"sequence": "CACGAAACACCACACGTCATCGCTGCAGTAAACGCCATCACGGAGTCACCTAGTGCAG", "binding signal": "9220 fluorescence intensity (a.u.)"}, {"sequence": "TCCCGCTTTCGCGAATCACCGTGGTCTCACGATTTTTGTTCGGAGTCACCTAGTGCAG", "binding signal": "10200 fluorescence intensity (a.u.)"}]}]}
